# Results as given in PubChem BioAssay AID504444 (National Center for Advancing Translational Sciences (NCATS), 2011).
# About 7,500 (2.1%) of roughly 360,000 compounds were called active. This list was built around the results that the source calls inconclusive (neither active nor inactive); the mix of calls is not that of the screen. The call rests on the fitted dose curve; in most records, active means well fitted inhibition curve with a large enough effect; inconclusive means small, poorly fitted or top-dose-only effect, or effect the other way; inactive means flat fitted curve, though single readings scatter. A potency beside an inconclusive call is a rough fit, not a confirmed value.
# Experiment: Nrf2 qHTS screen for inhibitors; further: nearly all actives have a fitted effect of over 60% in size
# Conditions: A549 ARE-Fluc reporter, luciferase luminescence, 18-24 h; activity change, negative = inhibition: at 46 µM (top of the series)
# Outline: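 Quantitative HTS in A549 cells stably bearing an antioxidant response element-firefly luciferase construct. Inhibition of Nrf2-driven transcription was scored by luminescence after 18-24 h of compound exposure at 37 °C.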
# On the % scale 0 is the no-effect control and ±100 the full control effect; potency means the concentration at half of the fitted maximal effect.
SMILES,Potency,"activity change, negative = inhibition"
C=CCNC(=O)c1ccc2nc(Cc3ccc(OC)cc3)oc2c1,"inconclusive: 10.3 µM [activator, partial curve]",–
CC(C)COc1ccc(S(=O)(=O)n2cc(F)c(=O)[nH]c2=O)cc1,"inconclusive: 25.9 µM [falling, single point]",–
CCCC(=O)C1=C(O)C(C(=O)OC)C(C)(C)CC1=Nc1cccc2ccccc12 (centres undefined),"inconclusive: 6.51 µM [falling, partial curve, poor fit]",–
COC(=O)C(C)NC(=O)C12CC3CC(C1)CC(c1ccc(C)cc1)(C3)C2 (centres undefined),–,inactive: 3.44%
Nc1nnc(-c2cccc([N+](=O)[O-])c2)o1,–,inactive: -19.4%
CC(=O)C1=C(C)NC(SCC(=O)c2ccccc2)=C(C#N)C1CC(C)C (centres undefined),–,inactive: -17%
N#CCC(=O)N/N=C/c1ccc(SCC(=O)Nc2ccccc2)o1,"inconclusive: 29.1 µM [falling, single point]",–
Cc1onc(-c2ccccc2)c1C(=O)N/N=C/c1cc2c(cc1Cl)OCO2,"inconclusive: 11.6 µM [falling, partial curve]",–
CCN(CC(=O)Nc1ccc(NC(C)=O)cc1)C(=O)/C=C/c1c(C)nn(-c2ccc(F)cc2)c1Cl,–,inactive: -13.7%
CCOC(=O)c1c(C)[nH]c(C(=O)OCc2ccccc2)c1C,"inconclusive: 8.2 µM [activator, partial curve]",–
CCCOC(=O)c1c(NC(=O)C2c3ccccc3Oc3ccccc32)sc2c1CCC(C)C2 (centres undefined),–,inactive: 9.41%
Cc1sc(NC(=O)c2cccs2)c(C(N)=O)c1C,"inconclusive: 13 µM [activator, partial curve]",–
CC(=O)c1c(C)nc(-c2ccc(Cl)cc2)nc1N=CN(C)C,"inconclusive: 10.3 µM [activator, partial curve]",–
CC(Oc1ccc(Cl)cc1)C(=O)NNC(=S)NC(=O)c1ccco1 (centres undefined),"inconclusive: 29.1 µM [falling, single point]",–
COc1ccc(-n2cc3ccc([N+](=O)[O-])cc3n2)cc1,"inconclusive: 16.4 µM [activator, partial curve]",–
CN(c1ccccc1)S(=O)(=O)c1cccc(NC(=O)CN2CCCc3ccccc32)c1,"inconclusive: 13 µM [falling, partial curve, poor fit]",–
COCCc1nn2c(=O)cc(COC(=O)COc3ccc(F)cc3)nc2s1,"inconclusive: 13 µM [activator, partial curve]",–
COc1ccc(S(=O)(=O)NCCc2c[nH]c3ccc(C)cc23)cc1,"inconclusive: 0.13 µM [activator, full curve, poor fit]",–
COc1ccc(Cc2nnc(SCC(=O)Nc3ccc(C)c(Cl)c3)[nH]c2=O)cc1,"inconclusive: 14.6 µM [falling, partial curve, poor fit]",–
Cc1cccc(-n2nc(C)c3c(C(=O)O)cc(-c4cccs4)nc32)c1,"inconclusive: 29.1 µM [falling, single point]",–
CS(=O)(=O)NCCSc1cc(C(F)(F)F)nc2ccccc12,–,inactive: -26%
O=C(NCc1ccco1)c1ccc(Cn2c(=O)c3sccc3n(Cc3ccc(F)cc3)c2=O)cc1,"inconclusive: 10.3 µM [falling, partial curve]",–

# 2 records drawn at random from the list so far, as already listed:
SMILES,Potency,"activity change, negative = inhibition"
Cc1onc(-c2ccccc2)c1C(=O)N/N=C/c1cc2c(cc1Cl)OCO2,"inconclusive: 11.6 µM [falling, partial curve]",–
O=C(NCc1ccco1)c1ccc(Cn2c(=O)c3sccc3n(Cc3ccc(F)cc3)c2=O)cc1,"inconclusive: 10.3 µM [falling, partial curve]",–

# Following part.

SMILES,Potency,"activity change, negative = inhibition"
O=C(CN1CCN(c2ccc(O)cc2)CC1)Nc1ccc(SC(F)F)cc1,"inconclusive: 20.6 µM [falling, single point]",–
CN1CCN(C(=O)N(c2ccccc2)c2ccccc2)CC1,"inconclusive: 0.731 µM [activator, full curve, poor fit]",–
COc1ccc(-c2nc3ccccc3o2)cc1NC(=O)C(C)Oc1ccc(Cl)cc1Cl (centres undefined),–,inactive: 19.7%
CN1CCN(c2oc(-c3ccc(COc4ccc(Cl)cc4)o3)nc2C#N)CC1,"inconclusive: 18.4 µM [falling, single point]",–
O=C(COc1ccc(Nc2ccccc2)cc1)Nc1ccncc1,"inconclusive: 8.2 µM [falling, partial curve]",–
O=C(c1c[nH]c2ccccc12)C(Cl)c1ccccc1 (centres undefined),"inconclusive: 13 µM [activator, partial curve]",–
CCCC[C@H]1CCCO[C@@](C(=O)NCc2ccccn2)(C(F)(F)F)C1,–,inactive: 13.8%
CC(=O)c1ccc(NCC(=O)N2CCN(S(=O)(=O)c3ccccc3)CC2)cc1,–,inactive: -23.8%
Cc1ccc(-c2nnc(SCC(=O)Nc3sc(C)c(C)c3C#N)n2C)cc1,–,inactive: -4.82%
COC(CNC(=O)c1ccc2nc(-c3cccs3)c(-c3cccs3)nc2c1)OC,"inconclusive: 16.4 µM [falling, partial curve, poor fit]",–
Cc1cccc2cc(-c3ccccc3)c(-c3ccccc3)c[n+]12,active: 23.1 µM,–
CCOC(=O)CCC(=O)NCc1ccc2[nH]c(C)cc2c1,"inconclusive: 0.231 µM [falling, full curve, poor fit]",–
CCOC(=O)c1c(C)nc2sc(C(=O)Nc3ccccc3)c(N)c2c1-c1ccc(OC)cc1,"inconclusive: 9.2 µM [falling, partial curve]",–
CCCn1c(NC(=O)C2CCN(C(=O)c3ccccc3C)CC2)nc2ccccc21,"inconclusive: 29.1 µM [falling, single point]",–
COc1cccc(N=c2oc3ccccc3cc2-c2nc3ccccc3[nH]2)c1,"inconclusive: 4.61 µM [activator, partial curve]",–
Brc1ccc(-c2cn3cccnc3n2)cc1,"inconclusive: 18.4 µM [activator, single point]",–
COc1ccc(-n2c(COc3ccc(C)cc3)nnc2SCc2ccc(C#N)cc2)cc1,"inconclusive: 29.1 µM [falling, single point]",–
COCCN=C1N[C@@H](c2ccccc2)C(C(=O)OC)=C(C)N1Cc1ccccc1,–,inactive: 18.8%
CCOC(=O)c1cccc(NC(=O)c2cc(CN3CCOCC3)on2)c1,–,inconclusive: 104% [activator]
COc1ccc(NC(=O)C2=Cc3cccc(OC)c3OC2)cc1,"inconclusive: 6.51 µM [activator, partial curve]",–
O=C(NCSc1ccccc1)c1ccccc1,"inconclusive: 1.64 µM [activator, full curve]",–
Cc1ccc(-c2nnn3c2nc(Cl)c2ccccc23)cc1,"inconclusive: 25.9 µM [activator, single point]",–

# Quoted from the listing.
# CCCn1c(NC(=O)C2CCN(C(=O)c3ccccc3C)CC2)nc2ccccc21 | Potency: inconclusive: 29.1 µM [falling, single point]
# O=C(COc1ccc(Nc2ccccc2)cc1)Nc1ccncc1 | Potency: inconclusive: 8.2 µM [falling, partial curve]
